These are yes or no findings as the source states them, for the method shown. In cells and extracts the contact can be indirect. These calls come from enrichment with a bait or labelling near it, and not all partners need be listed. For part of these data: A no says only that the protein was not detected with the bait.
How the values were obtained:
Assay in all cases: affinity purification with mass spectrometry; FL COMMD3, NTD and CTD (tagged with mCherry and 3xFLAG) individually expressed and isolated by immunoprecipitation from cell extracts (IP buffer: 25 mM HEPES pH 7.4, 138 mM NaCl, 10 mM Na3PO4, 2.7 mM KCl, 0.5% CHAPS, 1 mM DTT); associated proteins identified by mass spectrometry, compared with vector control
[1] = biological target: full-length (FL) COMMD3 fused to mCherry and 3xFLAG (human) (UniProt Q9UBI1)
[2] = biological target: COMMD3 N-terminal domain (NTD) fused to mCherry and 3xFLAG (human) (UniProt Q9UBI1)
[3] = biological target: COMMD3 C-terminal domain (CTD) with N-terminal mCherry and C-terminal 3xFLAG (human) (UniProt Q9UBI1)

Chains of the proteins cited; added tags and fusions are not shown. Lines headed by an entry give the natural chain unless they say otherwise; changes in a name come on top. A line that says so, or that is headed by a name, gives the form on record, which may keep a tag or linker. Residues count along the entry.
UniProt Q9UBI1: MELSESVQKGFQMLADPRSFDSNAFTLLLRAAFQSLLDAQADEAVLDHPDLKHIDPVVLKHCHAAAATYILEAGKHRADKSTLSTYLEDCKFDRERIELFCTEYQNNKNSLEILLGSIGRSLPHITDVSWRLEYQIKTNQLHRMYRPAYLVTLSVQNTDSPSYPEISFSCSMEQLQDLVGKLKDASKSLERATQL
COMMD3 N-terminal domain (NTD) fused to mCherry and 3xFLAG: residues 1-124 of Q9UBI1
COMMD3 C-terminal domain (CTD) with N-terminal mCherry and C-terminal 3xFLAG: residues 125-195 of Q9UBI1
UniProt P84077: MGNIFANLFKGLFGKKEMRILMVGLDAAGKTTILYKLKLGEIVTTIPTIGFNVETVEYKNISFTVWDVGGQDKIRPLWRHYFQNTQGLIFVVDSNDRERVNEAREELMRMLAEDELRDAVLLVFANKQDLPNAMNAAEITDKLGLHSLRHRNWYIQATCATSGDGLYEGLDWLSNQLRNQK

With “ADP-ribosylation factor 1 (ARF1), found in the COMMD3 interactomes (from UniProt P84077 1-181)” the binding [1] was “binds”, the binding [2] was “binds” and the binding [3] was “no binding”.

Source: paper doi:10.1101/2024.12.12.628173
